From US7749984B2, “Computer-based model for identification and characterization of non-competitive inhibitors of nicotinic acetylcholine receptors and related ligand-gated ion channel receptors” (priority 2003, dated 2010)
pKd: −log10 of the molar value.

Chains of the proteins cited; added tags and fusions are not shown. Residues count along the entry.
UniProt P04757, 26-499: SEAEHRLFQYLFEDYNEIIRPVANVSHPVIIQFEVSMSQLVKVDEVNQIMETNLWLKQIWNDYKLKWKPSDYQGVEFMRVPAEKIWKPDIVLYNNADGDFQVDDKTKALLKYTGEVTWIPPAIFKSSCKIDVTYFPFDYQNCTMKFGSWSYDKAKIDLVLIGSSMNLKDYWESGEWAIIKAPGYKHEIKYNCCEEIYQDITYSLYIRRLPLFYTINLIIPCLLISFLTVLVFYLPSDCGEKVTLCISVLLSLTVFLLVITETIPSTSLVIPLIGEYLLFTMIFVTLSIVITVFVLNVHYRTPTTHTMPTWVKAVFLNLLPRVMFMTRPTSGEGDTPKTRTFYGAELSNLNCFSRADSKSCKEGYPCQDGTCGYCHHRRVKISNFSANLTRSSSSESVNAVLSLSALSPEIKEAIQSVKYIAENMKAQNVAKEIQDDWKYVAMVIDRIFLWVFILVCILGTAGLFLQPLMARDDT
UniProt P12392, 21-495: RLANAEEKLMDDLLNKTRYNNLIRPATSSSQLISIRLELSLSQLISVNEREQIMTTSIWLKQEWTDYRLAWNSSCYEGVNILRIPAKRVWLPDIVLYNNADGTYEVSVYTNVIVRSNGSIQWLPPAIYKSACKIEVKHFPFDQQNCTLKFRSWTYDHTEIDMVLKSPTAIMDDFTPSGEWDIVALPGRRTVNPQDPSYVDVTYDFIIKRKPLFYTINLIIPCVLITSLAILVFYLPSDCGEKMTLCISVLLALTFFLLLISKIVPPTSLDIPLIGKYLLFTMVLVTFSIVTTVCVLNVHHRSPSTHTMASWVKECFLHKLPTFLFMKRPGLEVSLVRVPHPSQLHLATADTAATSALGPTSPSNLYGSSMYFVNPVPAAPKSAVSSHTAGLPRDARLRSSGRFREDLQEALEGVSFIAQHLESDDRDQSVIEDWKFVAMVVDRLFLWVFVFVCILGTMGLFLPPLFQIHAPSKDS

Target: α3β4 nAChR (Rattus norvegicus, UniProt P04757+P12392)
Test: biochemical
Assay type: binding
Set-up: host or cells: HEK293 (KXα3β4R2)
Conditions: log K chromatographic equilibrium constant

Compound: CN1CCN(C2=Nc3cc(Cl)ccc3Nc3ccccc32)CC1 [clozapine]
- pKd: 7.65
